Measured values reported in patent US20140235546A1.
No constants are given. Whether binding was seen depends on the method and setting. Binding seen in cells or lysates may run through a third protein. Some entries that bind do so weakly or less than the wild type.

Protein sequences, listed by entry. Tags and fused reporters are not part of them. Residues count along the entry.
UniProt P08909, residues 33-460: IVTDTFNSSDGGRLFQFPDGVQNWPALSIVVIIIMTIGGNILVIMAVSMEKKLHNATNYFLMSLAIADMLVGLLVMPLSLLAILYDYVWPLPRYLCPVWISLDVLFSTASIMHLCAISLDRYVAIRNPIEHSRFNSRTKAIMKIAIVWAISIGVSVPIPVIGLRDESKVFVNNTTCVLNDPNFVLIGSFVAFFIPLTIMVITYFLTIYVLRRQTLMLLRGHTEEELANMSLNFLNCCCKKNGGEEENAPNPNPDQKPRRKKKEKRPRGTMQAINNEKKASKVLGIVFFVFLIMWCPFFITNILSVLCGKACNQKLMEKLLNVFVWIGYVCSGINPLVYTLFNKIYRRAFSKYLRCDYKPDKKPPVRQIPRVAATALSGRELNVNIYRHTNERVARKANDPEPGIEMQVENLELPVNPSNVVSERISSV
UniProt O54857, residues 2-403: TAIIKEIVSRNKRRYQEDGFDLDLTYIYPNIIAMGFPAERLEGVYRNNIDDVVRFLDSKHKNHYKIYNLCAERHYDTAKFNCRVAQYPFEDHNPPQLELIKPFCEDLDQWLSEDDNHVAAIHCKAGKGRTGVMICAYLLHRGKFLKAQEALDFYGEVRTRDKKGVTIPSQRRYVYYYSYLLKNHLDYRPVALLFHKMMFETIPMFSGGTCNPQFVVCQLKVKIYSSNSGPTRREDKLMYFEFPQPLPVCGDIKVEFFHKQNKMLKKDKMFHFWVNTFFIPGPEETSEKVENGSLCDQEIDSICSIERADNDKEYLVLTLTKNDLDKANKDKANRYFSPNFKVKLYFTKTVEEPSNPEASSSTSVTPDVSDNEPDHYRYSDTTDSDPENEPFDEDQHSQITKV

Target: 5-HT2C receptor in rat brain tissue (rat) (UniProt P08909)
Test: co-immunoprecipitation from brain tissue

**Q.** For “PTEN in rat brain tissue (from UniProt O54857 2-403) (enzyme)”, which binding is on record?
**A.** binds
